What was measured is the transcript of the gene that encodes the chain shown.
System: Npc1-/- mouse liver
Experiment: Liver gene expression microarray, Npc1-/- versus control mice (Affymetrix Mouse GeneChip 1.0 ST)
Details: negative = lower in Npc1−/−
[1] = head prints "weeks" (column between 7 weeks and 11 weeks)

Molecule | FC (fold-change of expression between Npc1−/− and control mice) (3 weeks of age) | FC (fold-change of expression between Npc1−/− and control mice) (5 weeks of age) | FC (fold-change of expression between Npc1−/− and control mice) (7 weeks of age) | FC (fold-change of expression between Npc1−/− and control mice) (11 weeks of age) | FC (fold-change of expression between Npc1−/− and control mice) [1] | FC (fold-change of expression between Npc1−/− and control mice) (1 week of age)
Lifr (protein, UniProt P42703 44-1092, looked up) Leukemia inhibitory factor …: LKRGVQDLKCTTNNMRVWDCTWPAPLGVSPGTVKDICIKDRFHSCHPLETTNVKIPALSPGDHEVTINYLNGFQSKFTLNEKDVSLIPETPEILDLSADFFTSSLLLKWNDRGSALPHPSNATWEIKVLQNPRTEPVALVLLNTMLSGKDTVQHWNWTSDLPLQCATHSVSIRWHIDSPHFSGYKEWSDWSPLKNISWIRNTETNVFPQDKVVLAGSNMTICCMSPTKVLSGQIGNTLRPLIHLYGQTVAIHILNIPVSENSGTNIIFITDDDVYGTVVFAGYPPDVPQKLSCETHDLKEIICSWNPGRITGLVGPRNTEYTLFESISGKSAVFHRIEGLTNETYRLGVQMHPGQEIHNFTLTGRNPLGQAQSAVVINVTERVAPHDPTSLKVKDINSTVVTFSWYLPGNFTKINLLCQIEICKANSKKEVRNATIRGAEDSTYHVAVDKLNPYTAYTFRVRCSSKTFWKWSRWSDEKRHLTTEATPSKGPDTWREWSSDGKNLIVYWKPLPINEANGKILSYNVSCSLNEETQSVLEIFDPQHRAEIQLSKNDYIISVVARNSAGSSPPSKIASMEIPNDDITVEQAVGLGNRIFLTWRHDPNMTCDYVIKWCNSSRSEPCLLDWRKVPSNSTETVIESDQFQPGVRYNFYLYGCTNQGYQLLRSIIGYVEELAPIVAPNFTVEDTSADSILVKWDDIPVEELRGFLRGYLFYFQKGERDTPKTRSLEPHHSDIKLKNITDISQKTLRIADLQGKTSYHLVLRAYTHGGLGPEKSMFVVTKENSVGLIIAILIPVAVAVIVGVVTSILCYRKREWIKETFYPDIPNPENCKALQFQKSVCEGSNALKTLEMNPCTPNNVEVLESRSIVPKIEDTEIISPVAERPGERSEVDPENHVVVSYCPPIIEEEITNPAADEVGGASQVVYIDVQSMYQPQAKAEEEQDVDPVVVAGYKPQMRLPISPAVEDTAAEDEEGKTAGYRPQANVNTWNLVSPDSPRSTDSNNEVVSFGSPCSINSRQFLIPPKDEDSPKSNGGGWSFTNFFQNKPND | −1.36 | −2.46 | −2.37 | −3.29 | −2.57 | –
Ltf (protein, UniProt P08071 20-707, looked up) Lactotransferrin: KATTVQWCAVSNSEEEKCLRWQNEMRKVGGPPLSCVKKSSTRQCIQAIVTNRADAMTLDGGTMFDAGKPPYKLRPVAAEVYGTKEQPRTHYYAVAVVKNSSNFHLNQLQGLRSCHTGIGRSAGWKIPIGTLRPYLNWNGPPASLEEAVSKFFSKSCVPGAQKDRFPNLCSSCAGTGANKCASSPEEPYSGYAGALRCLRDNAGDVAFTRGSTVFEELPNKAERDQYKLLCPDNTWKPVTEYKECHLAQVPSHAVVSRSTNDKEEAIWELLRQSQEKFGKKQASGFQLFASPSGQKDLLFKESAIGFVRVPQKVDVGLYLTFSYTTSIQNLNKKQQDVIASKARVTWCAVGSEEKRKCDQWNRASRGRVTCISFPTTEDCIVAIMKGDADAMSLDGGYIYTAGKCGLVPVLAENQKSSKSNGLDCVNRPVEGYLAVAAVRREDAGFTWSSLRGKKSCHTAVDRTAGWNIPMGLLANQTRSCKFNEFFSQSCAPGADPKSNLCALCIGDEKGENKCAPNSKERYQGYTGALRCLAEKAGNVAFLKDSTVLQNTDGKNTEEWARNLKLKDFELLCLDDTRKPVTEAKNCHLAIAPNHAVVSRTDKVEVLQQVLLDQQVQFGRNGQRCPGEFCLFQSKTKNLLFNDNTECLAKIPGKTTSEKYLGKEYVIATERLKQCSSSPLLEACAFLTQ | – | 1.42 | 1.99 | 1.67 | 1.75 | −1.36
Il7r (protein, UniProt P16872 21-459, looked up) Interleukin-7 receptor …: ESGNAQDGDLEDADADDHSFWCHSQLEVDGSQHLLTCAFNDSDINTANLEFQICGALLRVKCLTLNKLQDIYFIKTSEFLLIGSSNICVKLGQKNLTCKNMAINTIVKAEAPSDLKVVYRKEANDFLVTFNAPHLKKKYLKKVKHDVAYRPARGESNWTHVSLFHTRTTIPQRKLRPKAMYEIKVRSIPHNDYFKGFWSEWSPSSTFETPEPKNQGGWDPVLPSVTILSLFSVFLLVILAHVLWKKRIKPVVWPSLPDHKKTLEQLCKKPKTSLNVSFNPESFLDCQIHEVKGVEARDEVESFLPNDLPAQPEELETQGHRAAVHSANRSPETSVSPPETVRRESPLRCLARNLSTCNAPPLLSSRSPDYRDGDRNRPPVYQDLLPNSGNTNVPVPVPQPLPFQSGILIPVSQRQPISTSSVLNQEEAYVTMSSFYQNK | 1.77 | 3.49 | 10.75 | 19.61 | 18.29 | –
Lgmn (protein, UniProt O89017 18-325, looked up) Legumain: VPVGVDDPEDGGKHWVVIVAGSNGWYNYRHQADACHAYQIIHRNGIPDEQIIVMMYDDIANSEENPTPGVVINRPNGTDVYKGVLKDYTGEDVTPENFLAVLRGDAEAVKGKGSGKVLKSGPRDHVFIYFTDHGATGILVFPNDDLHVKDLNKTIRYMYEHKMYQKMVFYIEACESGSMMNHLPDDINVYATTAANPKESSYACYYDEERGTYLGDWYSVNWMEDSDVEDLTKETLHKQYHLVKSHTNTSHVMQYGNKSISTMKVMQFQGMKHRASSPISLPPVTHLDLTPSPDVPLTILKRKLLRTN | 1.74 | 2.06 | 3.07 | 4.82 | 3.89 | –

From patent publication US20140370521A1, “IDENTIFICATION OF TWO NOVEL BIOMARKERS FOR NIEMANN-PICK DISEASE TYPE C” (The USA , as Represented by the Secretary, Department of …, priority 2011, published 2014)
